Experimental data taken from the supplement of paper PMC12282887.
These are raw signals, not scaled to a control.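 The top concentration was set near the MIC for antimicrobials, at 500 µM for most other compounds, and up to 1 mM for known inducer-like compounds. Deletion strains started from a tenfold smaller inoculum, and wells growing below 10% of the overall median were treated as non-growing.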

Test system: Escherichia coli BW25113
Assay: growth (OD600 area under curve, 8 h) (OD600 x h); higher = more growth
Procedure: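 E. coli BW25113 reporter strains (wild type, ΔmarA, ΔsoxS, Δrob, each carrying one of 8 lux reporter plasmids) were grown in 40 µl LB in 384-well plates at 37°C, 800 rpm, with each compound at 4 two-fold concentrations, in biological duplicates. Growth is the baseline-corrected OD600 area under the curve over 8 h (0-8 h WT, 1-9 h deletion strains).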

C=C[C@H]1CN2CC[C@H]1C[C@H]2[C@H](O)c1ccnc2ccc(OC)cc12 [Quinine]
growth
Details	reporter plasmid: EVC	reporter plasmid: acrABp	reporter plasmid: marRABp	reporter plasmid: micFp	reporter plasmid: ompFp	reporter plasmid: robp	reporter plasmid: soxSp	reporter plasmid: tolCp
40.6 µg/ml, genetic background: wild type	3.16	3	3.15	3.08	3.04	3.3	3.01	3.03
40.6 µg/ml, genetic background: ΔmarA	3.06	4.33	3.686	3.36	3.39	3.66	2.88	2.95
40.6 µg/ml, genetic background: Δrob	3.03	2.99	3.4	3.08	2.77	2.99	2.951	3.071
40.6 µg/ml, genetic background: ΔsoxS	3.53	3.459	3.26	3.13	3.14	3.28	3.232	3.37
81.1 µg/ml, genetic background: wild type	2.86	3.17	3.27	3.08	3.14	3.26	2.95	3.21
81.1 µg/ml, genetic background: ΔmarA	2.85	4.24	3.58	3.05	3.2	3.35	2.9	2.89
81.1 µg/ml, genetic background: Δrob	2.86	2.99	3.45	3.08	2.6	2.78	2.79	3.14
81.1 µg/ml, genetic background: ΔsoxS	3.16	3.22	3.39	2.77	2.99	3.19	3.11	3.1
162.2 µg/ml, genetic background: wild type	3.02	3.25	3.24	3.08	3.23	3.23	3.08	3.22
162.2 µg/ml, genetic background: ΔmarA	3.02	4.35	4.01	3.16	3.62	3.78	2.88	2.96
162.2 µg/ml, genetic background: Δrob	2.98	3.015	3.42	3.08	2.52	2.77	2.881	3.09
162.2 µg/ml, genetic background: ΔsoxS	3.41	3.358	3.35	2.77	3.02	3.26	3.21	3.37
324.4 µg/ml, genetic background: wild type	2.71	2.61	2.82	2.85	2.71	2.76	2.78	3.051
324.4 µg/ml, genetic background: ΔmarA	2.95	3.64	2.888	2.92	2.83	3.05	2.5	2.64
324.4 µg/ml, genetic background: Δrob	2.75	2.31	2.98	2.84	2.18	2.33	2.69	2.96
324.4 µg/ml, genetic background: ΔsoxS	3.2	3.01	2.99	2.65	2.61	2.53	2.91	3.14

COc1cc(NS(=O)(=O)c2ccc(N)cc2)ncn1 [Sulfamonomethoxine]
growth
Details	reporter plasmid: EVC	reporter plasmid: acrABp	reporter plasmid: marRABp	reporter plasmid: micFp	reporter plasmid: ompFp	reporter plasmid: robp	reporter plasmid: soxSp	reporter plasmid: tolCp
7 µg/ml, genetic background: wild type	2.91	3.18	2.9	3.17	2.69	2.69	2.99	3
7 µg/ml, genetic background: ΔmarA	3.19	3.86	3.22	3.45	3.06	3.29	3.03	2.98
7 µg/ml, genetic background: Δrob	3.23	3.07	2.95	3.03	2.3	2.59	2.89	3.07
7 µg/ml, genetic background: ΔsoxS	3.44	3.34	2.82	2.95	2.85	2.86	3.03	3.3
14 µg/ml, genetic background: wild type	2.86	3.26	2.86	3.01	2.7	2.67	2.8	2.89
14 µg/ml, genetic background: ΔmarA	3.11	3.84	3.22	3.29	3.01	3.27	2.89	2.94
14 µg/ml, genetic background: Δrob	3.042	2.932	3.192	3.04	2.22	2.59	2.81	3.02
14 µg/ml, genetic background: ΔsoxS	3.16	3.28	2.95	2.76	2.86	2.98	2.88	3.1
28 µg/ml, genetic background: wild type	3.12	3.03	2.98	3.18	2.873	3.16	3.24	3.21
28 µg/ml, genetic background: ΔmarA	3.37	4.05	3.32	3.6	3.42	3.47	3.29	3.03
28 µg/ml, genetic background: Δrob	3.42	2.97	2.92	3.3	2.51	2.789	3.1262	3.304
28 µg/ml, genetic background: ΔsoxS	3.47	3.43	3.19	3.17	3.0713	3.22	3.13	3.45
56.1 µg/ml, genetic background: wild type	2.88	2.86	2.8	2.76	2.553	2.91	2.92	2.908
56.1 µg/ml, genetic background: ΔmarA	3.1	3.86	3.28	3.31	3.1	3.56	3.04	2.8
56.1 µg/ml, genetic background: Δrob	3.11	2.26	2.72	2.85	2.04	2.38	2.81	3.1
56.1 µg/ml, genetic background: ΔsoxS	3.27	2.99	2.72	2.89	2.59	2.81	2.97	3.34

C[C@]12CC[C@H]3[C@@H](CCC4=CC(=O)CC[C@@]43C)[C@@H]1CC[C@@H]2O [Testosterone]
growth
Details	reporter plasmid: EVC	reporter plasmid: acrABp	reporter plasmid: marRABp	reporter plasmid: micFp	reporter plasmid: ompFp	reporter plasmid: robp	reporter plasmid: soxSp	reporter plasmid: tolCp
18 µg/ml, genetic background: wild type	2.78	3.41	3.21	2.92	3	3.018	2.76	2.67
18 µg/ml, genetic background: ΔmarA	3.03	4.27	3.47	3.23	3.35	3.53	2.627	2.87
18 µg/ml, genetic background: Δrob	2.74	3.78	3.54	2.84	2.46	3.04	2.59	2.79
18 µg/ml, genetic background: ΔsoxS	2.977	3.77	3.35	2.635	2.78	3.33	3.05	2.9
36.1 µg/ml, genetic background: wild type	2.85	3.24	3.3	2.96	2.73	2.83	2.79	2.81
36.1 µg/ml, genetic background: ΔmarA	2.88	3.99	3.3	3.16	3.29	3.57	2.72	2.78
36.1 µg/ml, genetic background: Δrob	2.79	3.65	3.21	2.91	2.52	2.84	2.65	2.78
36.1 µg/ml, genetic background: ΔsoxS	3.01	3.58	3.35	2.75	2.94	3.17	3.03	3.18
72.1 µg/ml, genetic background: wild type	2.92	3.19	3.538	2.84	3.12	2.97	2.74	2.87
72.1 µg/ml, genetic background: ΔmarA	2.98	4.02	3.28	3.14	3.3	3.69	2.75	2.88
72.1 µg/ml, genetic background: Δrob	2.67	3.48	3.14	2.64	2.48	3.05	2.56	2.781
72.1 µg/ml, genetic background: ΔsoxS	3.1	3.6	3.56	2.77	3.03	3.38	2.99	3.28
144.2 µg/ml, genetic background: wild type	3.01	3.33	3.41	2.787	3.23	2.85	2.71	2.916
144.2 µg/ml, genetic background: ΔmarA	2.95	3.56	3.25	3.21	3.33	3.55	2.67	2.78
144.2 µg/ml, genetic background: Δrob	2.77	3.235	3.09	2.71	2.32	2.78	2.72	2.7
144.2 µg/ml, genetic background: ΔsoxS	3.427	3.78	3.43	2.66	3.031	3.29	3.14	3.14
